From PMC4205886 come the findings set out here.

These are yes or no findings as the source states them, for the method shown. Binding seen in cells or lysates may run through a third protein.

The assay has as its target p53, endogenous (human (endogenous in HCT116)) (UniProt P04637). Kind of assay: co-IP; endogenous proteins in HCT116 p53+/+ cell lysates; immunoprecipitation with control IgG, anti-p53 or anti-USP7 antibody and protein A/G agarose, blots for the partners; lysis buffer 50 mM Tris-HCl pH 7.4, 150 mM NaCl, 1 mM EDTA, 1% Triton X-100, 4 °C; cells with or without IR (10 Gy), MG132, ectopic ABRO1, siABRO1 or siUSP7.

For “NBA1, endogenous (from UniProt Q9NWV8 1-329)”, the binding result is “no binding”.

On to “BRCC36, endogenous (from UniProt P46736 1-316) (enzyme)”, for which the binding result is reported as “no binding”.
